This is one part of the list. These are further read-outs of the screen, such as a control signal, another cell line or another target. No call is given for them. Most of these compounds were active or inconclusive in the main read-out, so they are no random draw. Words in brackets tell the shape of the fitted curve; partial curves, single points and poor fits give uncertain potencies.
Assay: qHTS Assay for Lipid Storage Modulators in Drosophila S3 Cells;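 as to cell number change: cells counted by Cell Tracker Red CMTPX staining in the red channel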
Details: BODIPY lipid droplet fluorescence, 18-24 h; for cell number change: measured here: cell count max response, cells fed with added oleic acid
In short: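 Laser-scanning cytometry quantifies lipid droplet accumulation (500–530 nm total intensity; droplet/cell object ratio) in oleic acid-fed (400 uM added) Drosophila S3 cells treated with a concentration series. 20 uM Triacsin C defined 100% inhibition.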

[1] = measured here: lipid fluorescence (Fed channel) AC50, cells fed with added oleic acid
[2] = measured here: cell number channel AC50, cells fed with added oleic acid

Cc1nn(-c2ccccc2)c(/N=C/c2ccccc2O)c1-c1ccccc1
cell number change: 14.4% | AC50 [1]: 9.2 µM [rising, partial curve]

CCOc1ccc(Nc2cc(=O)oc3ccccc23)cc1
AC50 [1]: 18.4 µM [falling, single point]

CN1CC2([N+](=O)[O-])CC=C(Oc3ccccc3)C([N+](=O)[O-])(C1)C2 (centres undefined)
cell number change: -39.8% | AC50 [2]: 13 µM [falling, partial curve, poor fit] | AC50 [1]: 18.4 µM [falling, single point]

Cc1ccc(-n2c(N)c(C(=O)Nc3c(C)n(C)n(-c4ccccc4)c3=O)c3nc4ccccc4nc32)cc1C
cell number change: -26.4% | AC50 [1]: 29.1 µM [falling, single point]

O=C(N[C@@H](Cc1ccccc1)C(=O)NCCc1c[nH]c2ccccc12)c1ccco1
cell number change: 1.68% | AC50 [1]: 0.206 µM [rising, single point]

CN(C)C(=O)CN1c2cccc3cccc(c23)S1(=O)=O
cell number change: 22.8% | AC50 [1]: 0.00461 µM [rising, full curve, poor fit]

CS(=O)(=O)N1CCC(Oc2ccccc2C(=O)NC2CCCCCC2)CC1
cell number change: -14.9% | AC50 [1]: 0.651 µM [falling, full curve]

Cc1ccc2oc(C(=O)NCc3ncc(C)[nH]3)c(C)c2c1
cell number change: 38.4% | AC50 [1]: 29.1 µM [rising, single point]

Cc1ccc(-c2csc3ncn(CC(=O)O)c(=O)c23)cc1C
cell number change: -5.22%

O=C(CSC1=NS(=O)(=O)c2cc(Cl)ccc2N1)Nc1cccc(F)c1
AC50 [1]: 29.1 µM [rising, single point]

CCCCN(CCCNC(=O)C1CCCN(S(=O)(=O)CC)C1)Cc1ccccc1 (centres undefined)
cell number change: -15.4% | AC50 [1]: 0.0164 µM [falling, full curve, poor fit]

N=C1SC(c2ccccc2)C(=O)N1c1ncc(Cc2ccccc2)s1 (centres undefined)
cell number change: -58.6% | AC50 [2]: 0.58 µM [falling, partial curve]

COc1ccc(S(=O)(=O)N2CCN(CC(=O)c3ccc(O)c(O)c3)CC2)cc1
cell number change: -48.5% | AC50 [1]: 29.1 µM [falling, single point]

CCN(CC)Cc1c(C(=O)OC)nnn1-c1nonc1N
cell number change: 9.8% | AC50 [1]: 2.31 µM [falling, full curve, poor fit]

O=C(Cn1ncc2c3ccccc3n(Cc3ccccc3F)c2c1=O)NCC1CCCO1 (centres undefined)
AC50 [1]: 5.17 µM [falling, single point]

COC(=O)C(C)NC(=O)C1CCCN1S(=O)(=O)c1cc(C)c(Cl)cc1C (centres undefined)
cell number change: -2.21% | AC50 [1]: 0.651 µM [falling, full curve]

Cc1sc2ncnc(SCC(=O)N3c4ccccc4Sc4ccc(Cl)cc43)c2c1C
cell number change: 10.6% | AC50 [1]: 2.91 µM [rising, single point]

CC(C)(C)NC(=O)CN1C(=O)NC(c2ccccc2)(c2ccccc2)C1=O
cell number change: 0.794% | AC50 [1]: 6.51 µM [rising, single point]

Oc1ccc(/C=N/n2c(COc3ccccc3)n[nH]c2=S)cc1O
cell number change: 12.5%

C=CCC(C(=O)OC)(C(=O)OC)c1ccccc1[N+](=O)[O-]
cell number change: 3.08% | AC50 [1]: 2.91 µM [rising, single point]

Cc1cccc(-c2cc3nc(C)cc(NCCCN(C)C)n3n2)c1
AC50 [1]: 0.411 µM [rising, single point]

O=c1n(-c2ccccc2)c(=O)n2n1CCC2
cell number change: 20.6% | AC50 [1]: 0.13 µM [falling, full curve, poor fit]

O=C(CSc1nnc2sc3ccccc3n12)NCc1ccco1
cell number change: 23.6% | AC50 [2]: 6.51 µM [rising, single point] | AC50 [1]: 6.51 µM [rising, single point]

Cc1ccc(C2CC(=O)c3cnc(NC(=O)c4ccco4)nc3C2)cc1 (centres undefined)
cell number change: 33.5% | AC50 [2]: 7.31 µM [rising, partial curve]

CC(=O)N1CCN(c2ccc(NC(=O)C(c3ccccc3)c3ccccc3)cc2)CC1
cell number change: -28% | AC50 [1]: 16.4 µM [falling, partial curve]

O=C(NCC1CCOCC1)c1ccc2nc(Cc3cccc(Cl)c3)oc2c1
cell number change: 8.65% | AC50 [1]: 18.4 µM [rising, single point]

FC(F)c1nnc2ccc(Cl)nn12
cell number change: 7.18%

CCCCNc1ccc(C(CC(N)=O)NC(=O)c2ccccc2)cc1[N+](=O)[O-] (centres undefined)
cell number change: 11.3% | AC50 [1]: 6.51 µM [rising, partial curve]

COc1ccc(N(C(=O)c2ccco2)C(C(=O)NC2CCCC2)c2ccc(C)cc2)c(OC)c1 (centres undefined)
cell number change: 21.8% | AC50 [1]: 0.116 µM [rising, full curve, poor fit]

O=c1[nH]c(Nc2ccc3c(c2)OCCO3)nnc1Cc1ccc(Cl)cc1
cell number change: 3.01%

O=C(Nc1nnc(-c2ccccc2)o1)C1CCCCC1
cell number change: 2.08% | AC50 [2]: 0.731 µM [falling, full curve] | AC50 [1]: 6.51 µM [falling, single point]

O=C(NNc1ccccn1)C(c1ccccc1)c1ccccc1
cell number change: -35.9% | AC50 [2]: 0.731 µM [rising, partial curve, poor fit] | AC50 [1]: 1.84 µM [falling, partial curve]

Cc1nnc(SCC(=O)Nc2ccc(N(C)C)cc2)n(N)c1=O
cell number change: 22.6% | AC50 [2]: 0.00517 µM [rising, full curve, poor fit]

S=C(N/N=C/c1ccc2ncccc2c1)Nc1ccccc1
AC50 [2]: 0.461 µM [rising, full curve]

COc1cc(CNc2ccc(N3CCCC3)cc2)cc(Cl)c1OC
cell number change: -53.4% | AC50 [2]: 32.6 µM [falling, single point] | AC50 [1]: 20.6 µM [falling, partial curve, poor fit]

O=C(NNS(=O)(=O)c1ccc(F)cc1)C1CCCCC1
cell number change: 2.52% | AC50 [1]: 0.206 µM [falling, single point]

CCC/C=N/NC(=O)c1cccc(Br)c1
cell number change: -12.1% | AC50 [2]: 0.0058 µM [falling, full curve, poor fit] | AC50 [1]: 0.0058 µM [falling, full curve, poor fit]

CCNC(=O)C12CCC(C)(C(=O)C1Br)C2(C)C (centres undefined)
cell number change: -14.9% | AC50 [1]: 3.66 µM [falling, single point]

CCOC(=O)N1CCN(c2nc(-c3ccc(F)cc3)cs2)CC1
cell number change: 129% | AC50 [2]: 16.4 µM [rising, partial curve] | AC50 [1]: 18.4 µM [rising, partial curve]

O=C1O/C(=C/c2ccccc2)c2ccccc21
cell number change: 28.7% | AC50 [1]: 1.16 µM [rising, full curve]

CC(=O)c1c(OC(=O)c2ccccc2)ccnc1C(F)(F)F
cell number change: 6.12%

Oc1ccc(CNc2ccccc2)c2cccnc12
cell number change: -21% | AC50 [1]: 0.00461 µM [falling, full curve, poor fit]

CCOC(=O)CSc1nnc(N)s1
cell number change: 1.14% | AC50 [1]: 16.4 µM [falling, single point]

COc1ccc(N2CC(O)=C(c3nc(-c4ccc(Cl)cc4)cs3)C2=N)cc1
cell number change: -23.5% | AC50 [1]: 29.1 µM [falling, single point]

O=C(Nc1ccc(F)cc1)Nc1nnc(-c2ccccc2)o1
cell number change: 24.8% | AC50 [1]: 29.1 µM [rising, single point]

O=C(Cc1n[nH]c(=O)c2ccccc12)Nc1cccc(S(=O)(=O)N2CCCC2)c1
cell number change: 9.47% | AC50 [1]: 29.1 µM [rising, single point]

COc1ccc(NC(=O)c2cncn2-c2ccccc2)cc1
cell number change: 5.83% | AC50 [1]: 0.206 µM [falling, partial curve]

Fc1ccc(C(CCCn2nnc(-c3cccnc3)n2)c2ccc(F)cc2)cc1
cell number change: -40.5% | AC50 [2]: 14.6 µM [falling, partial curve, poor fit] | AC50 [1]: 16.4 µM [falling, partial curve]

Cc1ccc(-n2nnnc2CNC(=O)C2CC(=O)N(c3ccc(F)cc3)C2)cc1C (centres undefined)
cell number change: 34.4%

COc1cc(C(=O)OCC(=O)NCc2ccco2)cc(OC)c1OC
cell number change: 2.78% | AC50 [1]: 0.116 µM [rising, full curve, poor fit]

Cc1cc(CSc2ccccc2)ccc1NC(=O)COc1ccccc1
cell number change: 11%

CCOc1ccc2oc(C(=O)OCC(=O)NC3CCCC3)c(C)c2c1
cell number change: -62.9% | AC50 [2]: 32.6 µM [falling, partial curve] | AC50 [1]: 20.6 µM [falling, partial curve]

CCOc1ncccc1C(=O)OCC(=O)c1cccc(Br)c1
cell number change: 106% | AC50 [2]: 18.4 µM [rising, single point] | AC50 [1]: 29.1 µM [rising, single point]

COc1cc(S(=O)(=O)Nc2cccc(C)c2)ccc1NC(=O)c1ccncc1
cell number change: -2.1% | AC50 [1]: 20.6 µM [falling, single point]

Cc1ccc2cc(CN(c3cccc(C)c3C)S(=O)(=O)c3ccccc3)c(=O)[nH]c2c1
cell number change: -7.03%

CCCNC(=O)C1CCN(c2nc(C)cc(C)n2)CC1
cell number change: 15.7%

C=CCNC(=O)CN1CCC(c2nc3cc(C)c(C)cc3[nH]2)CC1
cell number change: 6.94%

Cc1nnc(SCc2ccccn2)n(N)c1=O
cell number change: -14.6% | AC50 [1]: 3.26 µM [falling, single point]

O=C(CN1C(=O)c2ccccc2C1=O)Nc1cccc(O)c1
cell number change: 0.587%

NS(=O)(=O)c1ccc(NC(=O)COC(=O)CSCc2ccc(F)cc2)cc1
cell number change: 21.7% | AC50 [2]: 2.91 µM [falling, single point]

O=C(c1cc2ncc(Br)cn2n1)N1CCN(C(=O)c2ccco2)CC1
cell number change: 191% | AC50 [2]: 10.3 µM [rising, partial curve] | AC50 [1]: 1.84 µM [rising, partial curve]

N#C/C(=C\c1ccc(N2CCOCC2)o1)C(=O)NCCc1ccccc1
cell number change: -28.6% | AC50 [1]: 18.4 µM [falling, partial curve]
